Test results from PubChem BioAssay AID248 (DTP/NCI, 2004).
The list is a part of this screen's results and no random one: it is rich in T/C values a quarter to a half above the control, in often repeated tests (any T/C) and in doses without a T/C. Further doses and runs are listed elsewhere. T/C is the treated group as % of the vehicle group. Some entries give survivors of the animals treated and no T/C: the source holds a T/C of zero for them, seemingly a mark for toxic or unscored doses. Some survivor counts are full or nearly so, which does not show that the dose was tolerated: the source hardly ever lists a survival T/C far under the control, and the zero likely stands for such cases as well. Survivors were counted at the toxicity check, usually on the fifth day, unless a day is given; later deaths do not show. Schedules are NCI's codes, taken here to give the interval after Q, in days (D) or hours (H), and the number of doses after X. Where survival is the endpoint, this PubChem deposit counts one and a half times the control or more as active, and values a quarter to a half above the control carry no call in these data; other NCI protocols may use other cut-offs. Some T/C values are followed by the survivors on the day toxicity was checked, most often the fifth; where none is given, no animal had died by that day.

System: L1210 leukemia ip in BDF1 mice, survival T/C
Assay: NCI In Vivo Anticancer Drug Screen. Data for tumor model L1210 Leukemia (intraperitoneal) in B6D2F1 (BDF1) mice
Conditions: T/C endpoint: mean survival time, higher T/C = longer survival
[1] = dose: 100.0 mg/kg/injection, schedule: Q04DX003 (ip), vehicle: saline
[2] = dose: 200.0 mg/kg/injection, schedule: Q04DX003 (ip), vehicle: saline
[3] = dose: 400.0 mg/kg/injection, schedule: Q04DX003 (ip), vehicle: saline
[4] = dose: 400.0 mg/kg/injection, schedule: Q01DX001 (ip), vehicle: saline
[5] = dose: 50.0 mg/kg/injection, schedule: Q04DX003 (ip), vehicle: saline

CCCCCCCCCCCC1=NCCN1
survivor count (dose: 50.0 mg/kg/injection, schedule: Q01DX009 (ip), vehicle: saline with Tween-80): 1 of 6
survivor count (dose: 100.0 mg/kg/injection, schedule: Q01DX009 (ip), vehicle: saline with Tween-80): 1 of 6
survivor count [1]: 4 of 6
survivor count [2]: 0 of 6
survivor count [3]: 0 of 6

Cn1c(=O)c(=O)n(C)c2cc(Cl)c(Cl)cc21
survivor count (dose: 400.0 mg/kg/injection, schedule: Q01DX001 (ip), vehicle: carboxymethylcellulose (CMC)): 0 of 4

COc1ccc(OC)c(NC(=O)Nc2cc([N+](=O)[O-])ccc2C)c1
survivor count (dose: 100.0 mg/kg/injection, schedule: Q04DX002 (ip), vehicle: Klucel (hydroxypropylcellulose) (HPC)): 4 of 4

NCCNc1ncnc2c1ncn2C1OC(CO)C(O)C1O (centres undefined)
survivor count (dose: 200.0 mg/kg/injection, schedule: Q01DX005 (ip), vehicle: saline): 1 of 6

CN(C=O)C(=S)[S][Sb]([S]C(=S)N(C)C=O)[S]c1nc2ccc(N=Nc3ccc(NS(=O)(=O)c4ccc(NC(=O)C(Cl)Cl)cc4)cc3)cc2s1
survivor count (dose: 200.0 mg/kg/injection, schedule: Q01DX001 (ip), vehicle: steroid suspending solution): 1 of 6
survivor count (dose: 400.0 mg/kg/injection, schedule: Q01DX001 (ip), vehicle: steroid suspending solution): 1 of 6

CCN(CC)CCn1c2ccncc2c2cnccc21
survivor count [2]: 0 of 6
survivor count [3]: 0 of 6

Cc1c(-[n+]2ccccc2)[nH]c2ccccc12
survivor count (dose: 200.0 mg/kg/injection, schedule: Q01DX001 (ip), vehicle: saline): 0 of 4
survivor count [4]: 0 of 4

Cc1c2cnccc2c(C)c2c1c1ccccc1n2CCCN
survivor count [5]: 6 of 6
survivor count [1]: 2 of 6
survivor count [2]: 0 of 6
survivor count (dose: 400.0 mg/kg/injection, schedule: Q01DX001 (oral), vehicle: saline): 3 of 6
survivor count [3]: 0 of 6

O=C(Nc1cc(C(F)(F)F)ccc1Cl)Nc1cc(Cl)c(Oc2ccc(Cl)cc2)cc1S(=O)(=O)O
survivor count (dose: 400.0 mg/kg/injection, schedule: Q04DX003 (ip), vehicle: saline sonified): 0 of 6

N/C(=N\[N+](=O)[O-])Nc1nc2ccccc2s1
T/C (dose: 200.0 mg/kg/injection, schedule: Q04DX002 (ip), vehicle: Klucel (hydroxypropylcellulose) (HPC)): 142 % of control [2 of 3 alive]
survivor count (dose: 400.0 mg/kg/injection, schedule: Q04DX002 (ip), vehicle: Klucel (hydroxypropylcellulose) (HPC)): 1 of 3

Brc1ccc([I+]c2ccccc2)cc1
survivor count [4]: 1 of 4

O=C1OCCN1C(=O)c1ccc(Cl)c(Cl)c1
survivor count (dose: 200.0 mg/kg/injection, schedule: Q01DX009 (ip), vehicle: Klucel (hydroxypropylcellulose) (HPC)): 6 of 6

CC(C)(Cc1ccccc1)C(C(=O)O)C(=O)O
survivor count (dose: 400.0 mg/kg/injection, schedule: Q01DX001 (ip), vehicle: gum acacia): 2 of 6

O=[N+]([O-])c1ccc(O)c(CCl)c1
survivor count (dose: 400.0 mg/kg/injection, schedule: Q04DX002 (ip), vehicle: DMSO): 2 of 3

CCOC(=O)C(C)[P+](c1ccccc1)(c1ccccc1)c1ccccc1 (centres undefined)
survivor count (dose: 6.0 mg/kg/injection, schedule: Q01DX009 (ip), vehicle: saline): 2 of 6
survivor count (dose: 12.5 mg/kg/injection, schedule: Q04DX003 (ip), vehicle: saline): 3 of 6
survivor count (dose: 25.0 mg/kg/injection, schedule: Q04DX003 (ip), vehicle: saline): 0 of 6
survivor count [5]: 0 of 6
survivor count [1]: 0 of 6
survivor count [2]: 0 of 6
survivor count [3]: 0 of 6

Cn1c(=O)c2c(ncn2CCOC(=O)C(C)(C)Oc2ccc(Cl)cc2)n(C)c1=O
survivor count (dose: 50.0 mg/kg/injection, schedule: Q01DX009 (ip), vehicle: Klucel (hydroxypropylcellulose) (HPC)): 1 of 3
